{
  "sequences": {"note": "Sequences of proteins named here, by UniProt entry; tags and fusion partners are left off.", "UniProt O94267": "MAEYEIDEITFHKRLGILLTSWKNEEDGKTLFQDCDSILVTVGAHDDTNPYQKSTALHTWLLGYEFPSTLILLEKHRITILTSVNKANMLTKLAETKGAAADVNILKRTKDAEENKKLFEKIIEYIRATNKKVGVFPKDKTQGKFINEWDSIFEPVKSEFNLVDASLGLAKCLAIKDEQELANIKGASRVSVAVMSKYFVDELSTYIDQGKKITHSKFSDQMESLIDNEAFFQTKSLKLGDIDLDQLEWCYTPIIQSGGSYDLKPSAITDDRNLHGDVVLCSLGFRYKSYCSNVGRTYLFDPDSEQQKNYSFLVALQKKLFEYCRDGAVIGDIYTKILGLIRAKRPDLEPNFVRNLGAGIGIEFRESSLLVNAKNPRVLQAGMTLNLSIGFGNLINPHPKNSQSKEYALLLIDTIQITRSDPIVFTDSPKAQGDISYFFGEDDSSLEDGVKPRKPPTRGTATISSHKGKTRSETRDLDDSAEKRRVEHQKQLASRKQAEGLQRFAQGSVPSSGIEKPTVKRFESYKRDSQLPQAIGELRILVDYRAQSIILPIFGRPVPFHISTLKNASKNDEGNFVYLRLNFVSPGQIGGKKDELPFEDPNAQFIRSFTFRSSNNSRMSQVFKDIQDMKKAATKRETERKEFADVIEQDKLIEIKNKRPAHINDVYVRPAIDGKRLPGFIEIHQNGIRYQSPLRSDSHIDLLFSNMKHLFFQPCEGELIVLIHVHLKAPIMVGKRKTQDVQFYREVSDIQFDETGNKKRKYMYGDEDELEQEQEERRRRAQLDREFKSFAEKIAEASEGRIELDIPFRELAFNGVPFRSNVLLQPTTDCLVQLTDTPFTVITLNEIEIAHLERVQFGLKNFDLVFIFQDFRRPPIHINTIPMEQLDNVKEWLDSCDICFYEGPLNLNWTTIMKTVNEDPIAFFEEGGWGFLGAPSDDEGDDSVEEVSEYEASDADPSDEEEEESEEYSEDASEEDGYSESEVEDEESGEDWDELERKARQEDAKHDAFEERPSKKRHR"},
  "source": "paper PMC5321744",
  "molecular_target": "T1, TAP-tagged Fun30^Fft3 (fission yeast (S. pombe)) (UniProt O42861)",
  "T1 sequence": "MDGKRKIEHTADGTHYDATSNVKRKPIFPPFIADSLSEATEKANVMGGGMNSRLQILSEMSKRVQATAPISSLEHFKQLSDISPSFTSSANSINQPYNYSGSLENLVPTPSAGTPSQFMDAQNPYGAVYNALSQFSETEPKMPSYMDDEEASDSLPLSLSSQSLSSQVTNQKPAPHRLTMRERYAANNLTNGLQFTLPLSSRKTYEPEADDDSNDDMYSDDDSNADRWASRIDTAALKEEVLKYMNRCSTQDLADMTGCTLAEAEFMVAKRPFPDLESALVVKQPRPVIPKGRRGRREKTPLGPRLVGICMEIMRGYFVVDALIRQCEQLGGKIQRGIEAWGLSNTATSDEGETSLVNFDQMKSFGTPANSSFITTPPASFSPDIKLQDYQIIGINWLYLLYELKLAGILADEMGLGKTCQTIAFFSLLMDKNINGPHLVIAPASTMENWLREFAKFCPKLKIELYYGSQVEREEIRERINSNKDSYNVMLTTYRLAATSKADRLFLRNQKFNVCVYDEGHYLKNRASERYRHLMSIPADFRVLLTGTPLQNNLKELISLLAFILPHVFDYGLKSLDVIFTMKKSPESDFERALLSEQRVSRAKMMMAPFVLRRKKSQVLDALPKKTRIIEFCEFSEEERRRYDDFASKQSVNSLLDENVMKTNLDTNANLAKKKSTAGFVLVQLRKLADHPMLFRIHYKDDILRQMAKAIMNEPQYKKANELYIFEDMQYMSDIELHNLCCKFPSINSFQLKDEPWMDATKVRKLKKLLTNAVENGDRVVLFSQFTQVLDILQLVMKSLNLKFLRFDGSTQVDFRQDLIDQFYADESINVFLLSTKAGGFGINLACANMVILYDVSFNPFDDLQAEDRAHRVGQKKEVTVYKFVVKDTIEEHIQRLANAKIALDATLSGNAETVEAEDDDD",
  "test": "affinity purification with mass spectrometry; tandem affinity purification (TAP) of Fun30^Fft3 from fission yeast followed by MudPIT; Workman buffer with 350 mM NaCl; non-tagged strain purified in parallel",
  "note": "These are yes or no findings as the source states them, for the method shown. Binding seen in cells or lysates may run through a third protein. Here binding means that the protein was enriched with, or labelled near, the bait; the list need not be complete. Tags and fused reporters may be left off the sequences shown.",
  "data": [
    {"substance": "Spt16 (from UniProt O94267 1-1019)", "values": [
      {"measurement": "binding", "value": "binds"}
    ]}
  ]
}
